Only a part is listed here, and it is no random draw. The calls were merged from several studies; some rest on single wells. The list shows a part of the results.
Columns and labels:
Details in all cases: stereoisomer not certain
O52A1 = test system: T1, O52A1
T1 sequence (whole entry): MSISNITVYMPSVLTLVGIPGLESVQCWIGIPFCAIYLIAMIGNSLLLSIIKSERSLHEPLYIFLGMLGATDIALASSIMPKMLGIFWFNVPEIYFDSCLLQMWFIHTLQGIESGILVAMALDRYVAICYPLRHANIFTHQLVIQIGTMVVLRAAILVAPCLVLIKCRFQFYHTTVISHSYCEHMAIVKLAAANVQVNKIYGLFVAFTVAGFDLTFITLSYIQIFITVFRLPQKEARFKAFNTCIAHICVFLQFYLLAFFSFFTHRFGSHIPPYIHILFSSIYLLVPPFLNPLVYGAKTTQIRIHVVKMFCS
Method in brief: (§1)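 Transient luciferase assays in mammalian cell lines were common, though methods varied by source. The values come from published papers and their supplementary material, with extra details from the original authors when needed. Responsive refers to a measured signal the original authors judged statistically different from baseline, and non-responsive (inactive) to the remainder.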

Chains of the proteins cited; added tags and fusions are not shown. A line that says so, or that is headed by a name, gives the form on record, which may keep a tag or linker.
O52E1, as listed by the source: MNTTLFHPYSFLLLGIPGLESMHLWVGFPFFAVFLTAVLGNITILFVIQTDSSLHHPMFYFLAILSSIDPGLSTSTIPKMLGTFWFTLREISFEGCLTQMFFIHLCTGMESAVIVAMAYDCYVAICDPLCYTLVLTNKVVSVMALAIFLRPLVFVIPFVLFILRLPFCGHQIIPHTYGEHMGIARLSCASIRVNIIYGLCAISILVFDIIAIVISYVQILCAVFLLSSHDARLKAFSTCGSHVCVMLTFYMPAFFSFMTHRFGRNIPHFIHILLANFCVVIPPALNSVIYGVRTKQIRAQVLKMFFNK
O52E2, as listed by the source: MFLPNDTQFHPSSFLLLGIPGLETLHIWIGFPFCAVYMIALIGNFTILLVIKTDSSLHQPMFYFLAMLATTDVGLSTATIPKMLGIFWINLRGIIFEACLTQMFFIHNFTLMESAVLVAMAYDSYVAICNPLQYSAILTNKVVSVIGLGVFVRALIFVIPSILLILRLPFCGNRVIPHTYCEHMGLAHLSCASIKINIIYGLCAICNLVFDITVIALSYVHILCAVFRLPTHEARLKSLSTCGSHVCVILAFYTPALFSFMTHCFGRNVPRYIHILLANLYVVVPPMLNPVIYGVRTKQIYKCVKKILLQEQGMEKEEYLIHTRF
O52E8, as listed by the source: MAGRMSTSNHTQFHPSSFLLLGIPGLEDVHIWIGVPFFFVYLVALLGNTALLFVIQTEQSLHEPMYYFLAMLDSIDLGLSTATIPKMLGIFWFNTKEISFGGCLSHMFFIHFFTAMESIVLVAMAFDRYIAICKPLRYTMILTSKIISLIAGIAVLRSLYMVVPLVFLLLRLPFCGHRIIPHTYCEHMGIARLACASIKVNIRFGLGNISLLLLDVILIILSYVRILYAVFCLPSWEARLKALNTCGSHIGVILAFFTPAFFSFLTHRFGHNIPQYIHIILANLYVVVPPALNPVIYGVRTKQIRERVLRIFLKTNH
O52E5, as listed by the source: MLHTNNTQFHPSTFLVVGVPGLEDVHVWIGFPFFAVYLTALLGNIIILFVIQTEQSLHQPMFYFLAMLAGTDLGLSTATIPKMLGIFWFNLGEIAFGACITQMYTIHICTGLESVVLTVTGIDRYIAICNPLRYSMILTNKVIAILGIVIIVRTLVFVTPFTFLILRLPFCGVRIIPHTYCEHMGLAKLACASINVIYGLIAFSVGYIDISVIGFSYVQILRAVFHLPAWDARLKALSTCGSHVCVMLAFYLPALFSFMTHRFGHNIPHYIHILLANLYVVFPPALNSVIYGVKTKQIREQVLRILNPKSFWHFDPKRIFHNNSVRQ
O52E4, as listed by the source: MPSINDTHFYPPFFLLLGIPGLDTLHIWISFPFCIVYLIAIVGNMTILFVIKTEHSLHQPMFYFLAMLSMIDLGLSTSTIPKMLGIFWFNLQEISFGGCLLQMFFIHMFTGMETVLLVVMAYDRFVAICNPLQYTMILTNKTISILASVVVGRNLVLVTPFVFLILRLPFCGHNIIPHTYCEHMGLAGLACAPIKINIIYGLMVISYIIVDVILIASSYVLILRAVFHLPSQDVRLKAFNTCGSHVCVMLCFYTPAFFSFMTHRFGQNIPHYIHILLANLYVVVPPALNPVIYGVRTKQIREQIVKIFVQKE

O52B2 = test system: T2, O52B2
T2 sequence (whole entry): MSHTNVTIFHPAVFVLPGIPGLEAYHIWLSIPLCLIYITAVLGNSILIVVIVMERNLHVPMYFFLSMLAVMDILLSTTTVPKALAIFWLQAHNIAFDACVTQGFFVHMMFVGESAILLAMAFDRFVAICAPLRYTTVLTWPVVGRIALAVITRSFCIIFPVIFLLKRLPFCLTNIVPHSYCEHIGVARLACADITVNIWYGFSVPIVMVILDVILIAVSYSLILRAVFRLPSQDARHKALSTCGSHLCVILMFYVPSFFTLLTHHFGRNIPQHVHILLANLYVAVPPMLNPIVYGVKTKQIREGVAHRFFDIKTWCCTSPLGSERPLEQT
Method in brief: as §1

O52B6 = test system: T3, O52B6
T3 sequence (whole entry): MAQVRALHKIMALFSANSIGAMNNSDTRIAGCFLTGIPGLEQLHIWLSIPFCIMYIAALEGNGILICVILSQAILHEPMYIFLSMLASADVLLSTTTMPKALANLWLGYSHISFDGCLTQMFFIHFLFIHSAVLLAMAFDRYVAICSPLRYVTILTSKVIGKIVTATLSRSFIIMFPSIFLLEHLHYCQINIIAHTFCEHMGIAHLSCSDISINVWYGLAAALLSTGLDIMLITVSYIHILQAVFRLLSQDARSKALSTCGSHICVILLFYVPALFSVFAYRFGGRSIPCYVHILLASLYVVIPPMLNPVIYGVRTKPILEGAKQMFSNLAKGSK
Method in brief: as §1

O52E1 = test system: O52E1
Method in brief: as §1

O52E2 = test system: O52E2
Method in brief: as §1

O52E4 = test system: O52E4
Method in brief: as §1

O52E5 = test system: O52E5
Method in brief: as §1

O52E8 = test system: O52E8
Method in brief: as §1

O52I2 = test system: T4, O52I2
T4 sequence (whole entry): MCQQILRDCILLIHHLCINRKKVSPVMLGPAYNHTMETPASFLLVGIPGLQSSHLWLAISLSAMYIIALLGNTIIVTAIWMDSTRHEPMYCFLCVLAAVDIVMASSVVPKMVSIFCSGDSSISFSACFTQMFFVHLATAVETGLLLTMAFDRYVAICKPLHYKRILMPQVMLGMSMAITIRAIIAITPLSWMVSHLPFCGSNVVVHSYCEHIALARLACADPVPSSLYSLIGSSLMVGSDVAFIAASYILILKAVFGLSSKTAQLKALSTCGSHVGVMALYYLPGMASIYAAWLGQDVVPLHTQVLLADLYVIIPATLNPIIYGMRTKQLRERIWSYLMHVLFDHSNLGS
Method in brief: as §1

O52H1 = test system: T5, O52H1
T5 sequence (whole entry): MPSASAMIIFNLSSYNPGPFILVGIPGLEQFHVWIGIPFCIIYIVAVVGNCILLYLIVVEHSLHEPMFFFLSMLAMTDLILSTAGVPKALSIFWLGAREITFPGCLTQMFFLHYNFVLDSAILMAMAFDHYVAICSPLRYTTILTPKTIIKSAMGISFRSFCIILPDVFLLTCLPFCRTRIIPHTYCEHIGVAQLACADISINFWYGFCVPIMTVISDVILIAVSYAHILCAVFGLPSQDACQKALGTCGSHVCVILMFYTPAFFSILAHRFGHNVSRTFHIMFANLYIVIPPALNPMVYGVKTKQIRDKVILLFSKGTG
Method in brief: as §1
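Also: active if original authors judged signal statistically different from baseline.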

| SMILES | odorant receptor agonist call (O52A1) | odorant receptor agonist call (O52B2) | odorant receptor agonist call (O52B6) | odorant receptor agonist call (O52E1) | odorant receptor agonist call (O52E2) | odorant receptor agonist call (O52E4) | odorant receptor agonist call (O52E5) | odorant receptor agonist call (O52E8) | odorant receptor agonist call (O52I2) | odorant receptor agonist call (O52H1) |
| --- | --- | --- | --- | --- | --- | --- | --- | --- | --- | --- |
| CC1COCc2cc3c(cc21)C(C)(C)C(C)C3(C)C (stereo not drawn) | inactive | active | active | inactive | active | inactive | inactive | inactive | active | – |
| CC(C)=CCCC(C)=CC=O | inactive | inactive | inactive | inactive | inactive | inactive | inactive | inactive | inactive | – |
| CC(=O)OC(C)(C)C1CC=C(C)CC1 (stereo not drawn) | inactive | inactive | inactive | inactive | inactive | inactive | inactive | inactive | inactive | – |
| CCCCCCCCCC=O | inactive | inactive | inactive | inactive | inactive | inactive | active | inactive | inactive | – |
| CCC=CCCO | inactive | inactive | inactive | inactive | inactive | inactive | inactive | inactive | inactive | – |
| CC(C)(C)c1ccc(CCC=O)cc1 | inactive | inactive | inactive | inactive | inactive | inactive | inactive | inactive | inactive | – |
| CCCCCC(=O)O | inactive | inactive | inactive | inactive | inactive | inactive | inactive | inactive | inactive | – |
| CC(C)CC(=O)O | inactive | inactive | inactive | inactive | inactive | inactive | inactive | inactive | inactive | – |
| CCCCCCCCOC(C)=O | inactive | inactive | inactive | inactive | inactive | inactive | inactive | inactive | inactive | – |
| CC(=O)C(C)=O | inactive | inactive | inactive | inactive | inactive | inactive | active | inactive | inactive | active |
| CC=Cc1ccc(O)c(OC)c1 | inactive | active | inactive | inactive | active | active | active | inactive | inactive | – |
| COc1cc(C=O)ccc1O | inactive | inactive | inactive | inactive | inactive | inactive | inactive | inactive | inactive | – |
| CC(=O)OCC=C(C)CCC=C(C)C | inactive | inactive | inactive | inactive | inactive | active | active | inactive | inactive | – |
| c1ccc(Oc2ccccc2)cc1 | inactive | inactive | inactive | inactive | inactive | inactive | inactive | inactive | inactive | – |
| CCCC(=O)O | inactive | inactive | inactive | inactive | inactive | inactive | inactive | inactive | inactive | active |
| C=CCSCC=C | inactive | inactive | inactive | inactive | inactive | inactive | active | inactive | inactive | – |
| CCCCCCCC=CC=O | inactive | inactive | inactive | inactive | inactive | inactive | inactive | inactive | inactive | – |
| CC(=O)OC1CC2CCC1(C)C2(C)C (stereo not drawn) | inactive | inactive | inactive | inactive | inactive | inactive | inactive | inactive | inactive | – |
| O=CCc1ccccc1 | inactive | inactive | inactive | inactive | inactive | inactive | active | inactive | inactive | – |
| CC(C)CCC(=O)O | inactive | inactive | inactive | inactive | inactive | inactive | inactive | inactive | inactive | – |
| C=CCc1ccc(OC)c(OC)c1 | inactive | inactive | inactive | inactive | inactive | active | active | inactive | inactive | – |
| COc1ccccc1O | inactive | inactive | inactive | inactive | inactive | active | active | inactive | inactive | – |
| CCCCCOC(C)=O | inactive | inactive | inactive | inactive | inactive | inactive | inactive | inactive | inactive | – |
| CC(C)C=O | inactive | inactive | inactive | inactive | inactive | inactive | inactive | inactive | inactive | – |
| CCCCCCCC=O | inactive | inactive | inactive | inactive | inactive | inactive | inactive | inactive | inactive | – |
| C=CCc1ccc(OC(C)=O)c(OC)c1 | inactive | inactive | inactive | inactive | active | inactive | inactive | inactive | inactive | – |

| SMILES | odorant receptor agonist call (O52A1) | odorant receptor agonist call (O52B2) | odorant receptor agonist call (O52B6) | odorant receptor agonist call (O52E1) | odorant receptor agonist call (O52E2) | odorant receptor agonist call (O52E4) | odorant receptor agonist call (O52E5) | odorant receptor agonist call (O52E8) | odorant receptor agonist call (O52I2) | odorant receptor agonist call (O52H1) |
| --- | --- | --- | --- | --- | --- | --- | --- | --- | --- | --- |
| CC(=O)c1ccccc1 | inactive | inactive | active | inactive | inactive | – | – | inactive | inactive | – |
| COC(=O)c1ccccc1O | inactive | inactive | inactive | inactive | inactive | inactive | inactive | inactive | inactive | – |
| O=C1CCCCCCCCCCCCCCO1 | inactive | inactive | inactive | inactive | inactive | inactive | inactive | inactive | inactive | – |
| CC1=NC(C)SC1C (stereo not drawn) | inactive | inactive | inactive | inactive | inactive | inactive | – | inactive | inactive | – |
| CCCCCCCCCCC=O | inactive | inactive | inactive | inactive | inactive | inactive | inactive | inactive | inactive | – |
| COc1cc(C)ccc1O | inactive | inactive | inactive | inactive | inactive | inactive | inactive | inactive | inactive | – |
| CC1=CCC(C(C)(C)O)CC1 (stereo not drawn) | inactive | inactive | inactive | inactive | inactive | inactive | inactive | inactive | inactive | – |
| COC(=O)c1ccccc1 | inactive | inactive | inactive | inactive | inactive | – | – | inactive | inactive | – |
| CC1CCC(C(C)C)C(O)C1 (stereo not drawn) | inactive | inactive | inactive | inactive | inactive | inactive | inactive | inactive | inactive | – |
| O=C1CCCCCCCCCCCC(=O)OCCO1 | inactive | inactive | inactive | inactive | inactive | inactive | inactive | inactive | inactive | – |
| CCCCO | inactive | inactive | inactive | inactive | inactive | inactive | inactive | inactive | inactive | – |
| CC12CCC(C1)C(C)(C)C2=O (stereo not drawn) | inactive | inactive | inactive | inactive | inactive | active | active | inactive | inactive | – |
| C=C(C)C1CCC2=CC(=O)CC(C)C2(C)C1 (stereo not drawn) | – | – | – | – | – | active | active | – | – | – |
| CC(C)(O)CCCC1=CCC(C=O)CC1 (stereo not drawn) | – | – | – | – | – | inactive | inactive | – | – | – |
| CCCCCCCOC(C)=O | inactive | inactive | inactive | inactive | inactive | inactive | active | inactive | inactive | – |
| CCCCCCOC(=O)CCC | inactive | inactive | inactive | inactive | inactive | inactive | inactive | inactive | inactive | – |
| CC12C=CCC1C1CCC3CC(=O)CCC3(C)C1CC2 (stereo not drawn) | active | active | inactive | inactive | active | inactive | inactive | – | inactive | inactive |
| CCC1(O)C2(C)CCC(C2)C1(C)C (stereo not drawn) | inactive | inactive | inactive | inactive | inactive | inactive | inactive | inactive | inactive | – |
| c1cnccn1 | inactive | inactive | inactive | inactive | inactive | inactive | inactive | inactive | inactive | – |
| CC12CCC(CC1)C(C)(C)O2 | inactive | inactive | inactive | inactive | inactive | inactive | inactive | inactive | inactive | – |
| O=C1CCCCC1 | inactive | inactive | inactive | inactive | inactive | – | – | inactive | inactive | – |
| CC12C=CCC1C1CCC3=CC(=O)CCC3(C)C1CC2 (stereo not drawn) | inactive | inactive | inactive | inactive | inactive | active | active | inactive | inactive | – |
| C=CC(C)(O)CCC=C(C)C (stereo not drawn) | inactive | inactive | inactive | inactive | inactive | inactive | inactive | inactive | inactive | – |
| CCCCCC(C)=O | inactive | inactive | inactive | inactive | inactive | – | – | inactive | active | – |
| CC(C)C(=O)O | inactive | inactive | inactive | inactive | inactive | inactive | inactive | inactive | inactive | – |

Looked up above:
odorant receptor agonist call (O52E5), COc1cc(C)ccc1O is entered as inactive
odorant receptor agonist call (O52I2), CCCCCCOC(=O)CCC is entered as inactive
